The text below walks through data of PubChem BioAssay AID190 (DTP/NCI, 2004).

The experiment has as its system AKR/Lw mice, AKR lymphoma ip, median survival T/C. Kind of experiment: NCI In Vivo Anticancer Drug Screen. Data for tumor model Lymphoma AKR (Transplanted) (intraperitoneal) in AKR/Lw mice. The settings on record: T/C endpoint: median survival time, higher T/C = longer survival. As for the experimental part: The antitumor activity of compounds was measured in mice bearing transplantable tumors. Survival or tumor size were measured and the results are expressed as the measurement made in the treated group (T) divided by the measurement made in the vehicle treated control group (C). The tumor model used in this assay is Lymphoma AKR (Transplanted) (intraperitoneal) in AKR/Lw mice

The mark [1] stands for this setting: dose: 0.25 mg/kg/injection, schedule: Q01DX009 (ip), vehicle: saline.
Where [2] appears, read: dose: 0.5 mg/kg/injection, schedule: Q01DX009 (ip), vehicle: saline.
[3] abbreviates: dose: 1.0 mg/kg/injection, schedule: Q01DX009 (ip), vehicle: saline.
The mark [4] stands for this setting: dose: 40.0 mg/kg/injection, schedule: Q01DX001 (ip), vehicle: saline.
[5] abbreviates: dose: 40.0 mg/kg/injection, schedule: Q04DX003 (ip), vehicle: saline.
Where [6] appears, read: dose: 80.0 mg/kg/injection, schedule: Q04DX003 (ip), vehicle: saline.
Where [7] appears, read: dose: 100.0 mg/kg/injection, schedule: Q01DX001 (ip), vehicle: saline.
Setting [8] is: dose: 200.0 mg/kg/injection, schedule: Q01DX001 (ip), vehicle: saline.

Structures are written as SMILES. The list does not hold the whole screen: it is rich in T/C values a quarter to a half above the control, in often repeated tests (any T/C) and in doses without a T/C. Other doses and runs of a compound stand elsewhere. T/C: endpoint of the treated group in % of that of the vehicle group. Some doses have a count of surviving animals in place of a T/C: the source files T/C as zero there, which appears to mark a toxic dose or a test without result, not a measured value. Some survivor counts are full or nearly so, which does not show that the dose was tolerated: the source hardly ever lists a survival T/C far under the control, and the zero likely stands for such cases as well. Survivors were counted at the toxicity check, usually on the fifth day, unless a day is given; later deaths do not show. Schedules are NCI's codes, taken here to give the interval after Q, in days (D) or hours (H), and the number of doses after X. Some entries were tested several times; the values are given in rising order. Where survival is the endpoint, the PubChem record calls one and a half times the control and up active, and a quarter to a half above the control has no call in these data; cut-offs in other NCI protocols can differ. Some T/C values carry the count of animals alive at the toxicity check (mostly the fifth day); where none is given, no animal had died by that day.

As for `CC[C@](O)(C(=O)O)c1cc2n(c(=O)c1CO)Cc1cc3ccccc3nc1-2`, the survivor count by setting is: (dose: 0.02 mg/kg/injection, schedule: Q01DX005 (ip), vehicle: saline) 4 of 10; (dose: 0.05 mg/kg/injection, schedule: Q01DX005 (ip), vehicle: saline) 3 of 10; (dose: 0.1 mg/kg/injection, schedule: Q01DX005 (ip), vehicle: saline) 5 of 10; under setting [3], 6 of 10 and 10 of 10; (dose: 1.5 mg/kg/injection, schedule: Q01DX009 (ip), vehicle: saline) 9 of 10 and 10 of 10; (dose: 2.0 mg/kg/injection, schedule: Q01DX009 (ip), vehicle: saline) 8 of 10. The survivor count is, setting by setting: (dose: 3.0 mg/kg/injection, schedule: Q01DX009 (ip), vehicle: saline) 10 of 10; (dose: 4.0 mg/kg/injection, schedule: Q01DX009 (ip), vehicle: saline) 8 of 10; (dose: 5.0 mg/kg/injection, schedule: Q01DX009 (ip), vehicle: saline) 9 of 10 and 10 of 10; (dose: 5.0 mg/kg/injection, schedule: Q04DX003 (ip), vehicle: saline) 10 of 10; (dose: 6.0 mg/kg/injection, schedule: Q01DX009 (ip), vehicle: saline) 10 of 10; (dose: 7.5 mg/kg/injection, schedule: Q01DX009 (ip), vehicle: saline) 10 of 10. Besides, the survivor count is 9 of 10 and 10 of 10 (dose: 10.0 mg/kg/injection, schedule: Q01DX009 (ip), vehicle: saline); 9 of 10 (dose: 10.0 mg/kg/injection, schedule: Q04DX003 (ip), vehicle: saline); 9 of 10 (dose: 15.0 mg/kg/injection, schedule: Q01DX009 (ip), vehicle: saline); 7 of 10 and 9 of 10 (dose: 15.0 mg/kg/injection, schedule: Q04DX003 (ip), vehicle: saline); 5 of 10, 7 of 10, 8 of 10, 9 of 10, 10 of 10 (dose: 20.0 mg/kg/injection, schedule: Q04DX003 (ip), vehicle: saline); 10 of 10 (dose: 30.0 mg/kg/injection, schedule: Q01DX009 (ip), vehicle: saline). For the same compound, the survivor count is, setting by setting: (dose: 37.5 mg/kg/injection, schedule: Q01DX001 (ip), vehicle: saline) 10 of 10; under setting [4], 4 of 10; under setting [5], 4 of 10 and 8 of 10; (dose: 50.0 mg/kg/injection, schedule: Q01DX001 (ip), vehicle: saline) 5 of 10 and 6 of 10; (dose: 60.0 mg/kg/injection, schedule: Q04DX003 (ip), vehicle: saline) 8 of 10; (dose: 75.0 mg/kg/injection, schedule: Q01DX001 (ip), vehicle: saline) 5 of 10. The survivor count reads like this: under setting [6], 1 of 10 and 6 of 10; under setting [7], 5 of 10 and 7 of 10; (dose: 150.0 mg/kg/injection, schedule: Q01DX001 (ip), vehicle: saline) 5 of 10; under setting [8], 0 of 10. Further, the T/C is 127 % of control (dose: 0.12 mg/kg/injection, schedule: Q01DX009 (ip), vehicle: saline); 112 [9 of 10 alive], 113, 113 [9 of 10 alive], 129 [9 of 10 alive], 141 % of control under setting [1]; 93, 93 [9 of 10 alive], 97, 122 % of control [9 of 10 alive] under setting [2]; 92, 102, 104 [9 of 10 alive], 122 % of control (dose: 2.5 mg/kg/injection, schedule: Q04DX003 (ip), vehicle: saline); 120 % of control (dose: 5.0 mg/kg/injection, schedule: Q04DX003 (ip), vehicle: saline, evaluated on day 45); 97, 102 [9 of 10 alive], 107, 122, 130 % of control (dose: 5.0 mg/kg/injection, schedule: Q04DX003 (ip), vehicle: saline, evaluated on day 60). The T/C (dose: 7.5 mg/kg/injection, schedule: Q04DX003 (ip), vehicle: saline) is 125 and 138 % of control; the T/C (dose: 10.0 mg/kg/injection, schedule: Q01DX001 (ip), vehicle: saline) was 104, 107, 113, 113 [9 of 10 alive], 118 % of control; the T/C (dose: 10.0 mg/kg/injection, schedule: Q04DX003 (ip), vehicle: saline, evaluated on day 45) was 125 % of control; the T/C (dose: 10.0 mg/kg/injection, schedule: Q04DX003 (ip), vehicle: saline, evaluated on day 60) was 86, 97, 102, 104, 105, 125, 133 % of control; the T/C (dose: 20.0 mg/kg/injection, schedule: Q01DX001 (ip), vehicle: saline) is 113, 116, 116 [8 of 10 alive], 118 % of control; the T/C (dose: 20.0 mg/kg/injection, schedule: Q04DX003 (ip), vehicle: saline, evaluated on day 45) is 136 % of control. The T/C runs as follows: (dose: 20.0 mg/kg/injection, schedule: Q04DX003 (ip), vehicle: saline, evaluated on day 60) 100, 108, 122 % of control; (dose: 25.0 mg/kg/injection, schedule: Q01DX001 (ip), vehicle: saline) 125 [9 of 10 alive] and 141 % of control [9 of 10 alive]; under setting [4], 136 % of control [9 of 10 alive]; under setting [5], 91 and 125 % of control; under setting [6], 86 and 125 % of control.
For the compound `COc1cc2ccc(C(C)N)cc2cc1OC` (stereo unspecified), the survivor count (dose: 400.0 mg/kg/injection, schedule: Q01DX001 (ip), vehicle: saline) is 3 of 10.
As for `CN(C)C(C)(C)CNc1ccc(C(=O)O)cc1`, the survivor count under setting [8] is recorded as 10 of 10.
In the case of `CO[C@H](C(=O)[C@@H](O)[C@@H](C)O)[C@@H]1Cc2cc3cc(OC4CC(OC5CC(O)C(O)C(C)O5)C(O)C(C)O4)c(C)c(O)c3c(O)c2C(=O)[C@H]1OC1CC(OC2CC(OC3CC(C)(O)C(O)C(C)O3)C(O)C(C)O2)C(O)C(C)O1` (stereo partly specified), the T/C is 132 % of control under setting [1]; 142 % of control under setting [2]; 130 % of control (dose: 0.5 mg/kg/injection, schedule: Q01DX009 (ip), vehicle: water). The survivor count by setting is: under setting [3], 2 of 10; (dose: 1.0 mg/kg/injection, schedule: Q01DX009 (ip), vehicle: water) 2 of 10 and 10 of 10; (dose: 2.0 mg/kg/injection, schedule: Q01DX009 (ip), vehicle: water) 0 of 10 and 10 of 10.
Regarding `C[N+]1(C)Cc2ccccc2-c2ccccc2C1`, the survivor count runs as follows: under setting [7], 1 of 10; under setting [8], 4 of 10.
With `CCOC(=O)CCCSCCCC(=O)OCC`, under setting [7], the survivor count was 10 of 10.
